Assay results as given in paper PMC5838229.
No constants are given. Whether binding was seen depends on the method and setting. Binding seen in cells or lysates may run through a third protein. Some results given as binding are weak or reduced against the parent protein; the word gives no strength. For part of these data: Sequences can lack the tags named with a protein.

The chains behind the UniProt entries cited, without tags or fusion partners.
UniProt P11142: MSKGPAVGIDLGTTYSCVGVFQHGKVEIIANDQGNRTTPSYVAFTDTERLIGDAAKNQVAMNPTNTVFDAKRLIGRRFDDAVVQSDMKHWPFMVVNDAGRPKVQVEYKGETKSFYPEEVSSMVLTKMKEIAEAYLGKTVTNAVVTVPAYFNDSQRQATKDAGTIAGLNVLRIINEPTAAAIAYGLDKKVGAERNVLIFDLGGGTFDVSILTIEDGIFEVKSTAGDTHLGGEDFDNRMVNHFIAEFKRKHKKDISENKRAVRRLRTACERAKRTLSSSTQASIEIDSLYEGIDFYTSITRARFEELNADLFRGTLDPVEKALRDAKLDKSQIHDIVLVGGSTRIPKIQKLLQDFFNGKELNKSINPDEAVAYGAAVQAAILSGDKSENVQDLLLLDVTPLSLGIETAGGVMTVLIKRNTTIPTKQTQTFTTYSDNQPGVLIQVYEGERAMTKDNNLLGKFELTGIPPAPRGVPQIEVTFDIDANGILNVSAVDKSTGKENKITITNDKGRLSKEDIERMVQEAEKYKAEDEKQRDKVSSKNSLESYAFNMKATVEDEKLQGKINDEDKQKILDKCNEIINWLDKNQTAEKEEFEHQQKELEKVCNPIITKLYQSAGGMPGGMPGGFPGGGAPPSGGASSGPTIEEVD

Assays:
[1] = biological target: T1, USP19 CT ∆UI (490-680 and 1058-1318) (UniProt O94966); experiment: co-IP; HEK293T cells transfected with Flag-tagged USP19 variants; lysis in 1% CHAPS, 30 mM Tris/HCl pH 7.4, 150 mM potassium acetate, 4 mM magnesium acetate, 1 mM DTT; Flag M2 beads; immunoblotting; empty vector as negative control
T1 sequence: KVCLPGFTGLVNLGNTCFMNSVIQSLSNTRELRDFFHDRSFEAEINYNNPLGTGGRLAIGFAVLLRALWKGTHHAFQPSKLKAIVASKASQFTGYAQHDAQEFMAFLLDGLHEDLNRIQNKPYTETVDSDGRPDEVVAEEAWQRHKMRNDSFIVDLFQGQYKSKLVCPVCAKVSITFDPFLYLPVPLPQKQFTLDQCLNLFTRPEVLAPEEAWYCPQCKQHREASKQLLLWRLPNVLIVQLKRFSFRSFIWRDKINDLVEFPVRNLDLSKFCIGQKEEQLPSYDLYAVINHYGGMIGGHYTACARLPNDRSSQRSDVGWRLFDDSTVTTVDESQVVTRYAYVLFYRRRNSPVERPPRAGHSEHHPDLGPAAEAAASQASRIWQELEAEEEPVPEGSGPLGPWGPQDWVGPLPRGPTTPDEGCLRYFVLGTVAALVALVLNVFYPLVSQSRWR

[2] = biological target: T2, Flag-tagged USP19, wild type, full length (USP19 isoform 1) (UniProt O94966); experiment: as above
T2 sequence: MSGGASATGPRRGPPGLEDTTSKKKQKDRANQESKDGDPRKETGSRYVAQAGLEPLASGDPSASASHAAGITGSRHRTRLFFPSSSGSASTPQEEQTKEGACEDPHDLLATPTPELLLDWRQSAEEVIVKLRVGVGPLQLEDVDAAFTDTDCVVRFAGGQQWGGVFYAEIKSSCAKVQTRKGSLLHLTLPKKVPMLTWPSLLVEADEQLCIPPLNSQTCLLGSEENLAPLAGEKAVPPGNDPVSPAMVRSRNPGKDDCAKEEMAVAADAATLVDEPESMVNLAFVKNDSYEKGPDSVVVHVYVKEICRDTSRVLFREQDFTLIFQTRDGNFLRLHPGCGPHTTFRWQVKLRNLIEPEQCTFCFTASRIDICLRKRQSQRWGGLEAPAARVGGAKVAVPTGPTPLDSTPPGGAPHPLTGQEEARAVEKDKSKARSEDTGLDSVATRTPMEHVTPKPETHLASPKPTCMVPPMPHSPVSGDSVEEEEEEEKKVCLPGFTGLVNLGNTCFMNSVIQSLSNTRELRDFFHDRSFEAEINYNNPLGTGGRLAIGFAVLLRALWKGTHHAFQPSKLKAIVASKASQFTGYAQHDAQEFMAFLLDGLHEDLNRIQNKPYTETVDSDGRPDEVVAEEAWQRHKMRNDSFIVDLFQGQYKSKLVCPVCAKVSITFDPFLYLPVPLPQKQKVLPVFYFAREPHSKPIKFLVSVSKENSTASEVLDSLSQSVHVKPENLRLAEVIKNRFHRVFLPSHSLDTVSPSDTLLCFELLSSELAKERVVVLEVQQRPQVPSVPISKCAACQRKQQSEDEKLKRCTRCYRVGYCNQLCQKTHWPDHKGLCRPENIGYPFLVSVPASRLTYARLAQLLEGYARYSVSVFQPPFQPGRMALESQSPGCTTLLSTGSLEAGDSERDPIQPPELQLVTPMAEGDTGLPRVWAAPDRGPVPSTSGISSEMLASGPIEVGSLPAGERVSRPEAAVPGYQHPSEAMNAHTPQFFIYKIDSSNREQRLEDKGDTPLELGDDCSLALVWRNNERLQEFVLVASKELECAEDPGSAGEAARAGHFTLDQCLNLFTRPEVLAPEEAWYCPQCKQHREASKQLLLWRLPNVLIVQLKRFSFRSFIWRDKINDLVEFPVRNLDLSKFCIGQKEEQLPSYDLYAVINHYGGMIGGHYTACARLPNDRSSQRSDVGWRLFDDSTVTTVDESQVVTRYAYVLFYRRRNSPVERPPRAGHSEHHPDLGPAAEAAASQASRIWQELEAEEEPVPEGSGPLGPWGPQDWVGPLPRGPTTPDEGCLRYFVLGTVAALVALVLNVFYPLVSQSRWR

[3] = biological target: T3, endogenous USP19 (human (endogenous in HEK293T)) (UniProt O94966); experiment: co-IP; endogenous proteins; cell extracts incubated with affinity-purified USP19 antibodies immobilized on protein A beads; USP19 null CRISPR cells as negative control; immunoblotting
T3 sequence: T2 sequence

- binding [1]: binds
- binding [2]: binds
- binding [3]: binds
Substance: endogenous HSC70 (from UniProt P11142 1-646)
